Experimental data: patent WO2023227069A1, “Polidocanol with single molecular weight, and use thereof” (Jenkem Technology Co Ltd, priority 2022, dated 2023)
Some of these results come from one statement about several compounds together.

Assay: Foaming efficiency of 1% solutions (foam drainage, half-life, coalescence)
Assay type: physicochemical
Details: 1% solution, 20 pumps; foam emptying rate 50%

| Compound | Foam half-life time (FHT) |
| --- | --- |
| CCCCCCCCCCCCOCCOCCOCCOCCOCCOCCOCCOCCO [DD-PEG8-OH] | more than 120 s |
| CCCCCCCCCCCCOCCOCCOCCOCCOCCOCCOCCOCCOCCOCCOCCOCCOCCOCCOCCOCCOCCOCCOCCOCCOCCOCCOCCOCCO [DD-PEG24-OH] | more than 120 s |
| CCCCCCCCCCCCOCCOCCOCCOCCOCCOCCOCCOCCOCCO [DD-PEG9-OH] | more than 120 s |
| CCCCCCCCCCCCOCCOCCOCCOCCOCCOCCOCCOCCOCCOCCO [DD-PEG10-OH] | more than 120 s |
| CCCCCCCCCCCCOCCOCCOCCOCCOCCOCCOCCOCCOCCOCCOCCO [DD-PEG11-OH] | more than 120 s |
| CCCCCCCCCCCCOCCOCCOCCOCCOCCOCCOCCOCCOCCOCCOCCOCCO [DD-PEG12-OH] | more than 120 s |
